Experiment: general procedure: Fmoc solid-phase peptide synthesis; 2-chlorotrityl resin (Chempep, 0.81 mmol/g)
Conditions: for conjugation yield: conjugation step; for cyclisation yield: cyclisation step; for step yield: late stage modification step

Substance | step yield | also measured
Benzyl ((7R,10aS,22aS,29R,32aS,44aS)-29-(3-(benzyloxy)quinoline-2-carboxamido)-18,40-dimethyl-6,10,16,19,22,28,32,38,41,44-decaoxotetratetracontahydrotetrapyrido[1,2-a:1′,2′-j:1″,2″-q:1′″,2′″-z][1,4,7,10,13,17,20,23,26,29]decaazacyclodotriacontin-7-yl)carbamate (Compound 238) | – | conjugation yield: 83%
Benzyl N-[(3R,7S,20S,27R,31S,44S)-27-[(tert-butoxycarbonyl)amino]-15,39-dimethyl-2,6,13,16,19,26,30,37,40,43-decaoxo-1,5,12,15,18,25,29,36,39,42-decaazapentacyclo[42.4.0.0^7,12.0^20,25.0^31,36]octatetracontan-3-yl]carbamate | – | cyclisation yield: 40%
Benzyl tert-butyl ((7R,8R,11S,19aS,26R,30S,38aS)-11,30-di((S)-sec-butyl)-8,12,15,31,34-pentamethyl-6,10,13,16,19,25,29,32,35,38-decaoxotetratriacontahydro-2H,6H,10H-dipyrido[2,1-b1: 2′,1′-l][1]oxa[4,7,10,13,17,20,23,26,29]nonaazacyclodotriacontine-7,26-diyl)dicarbamate | – | cyclisation yield: 71% yield
Benzyl tert-butyl ((7R,10aS,22aS,29R,32aS,44aS)-6,10,16,22,28,32,38,44-octaoxotetracontahydro-2H,19H-tetrapyrido[1,2-a1: 1′,2′-d: 1″,2″-k: 1′″,2′″-t][1,17]dioxa[4,7,11,14,20,23,27,30]octaazacyclodotriacontine-7,29-diyl)dicarbamate | – | cyclisation yield: 44% yield
Benzyl tert-butyl ((7R,11S,19aS,26R,30S,38aS)-11,30-diisopropyl-12,15,31,34-tetramethyl-6,10,13,16,19,25,29,32,35,38-decaoxotetratriacontahydro-2H,6H,10H-dipyrido[2,1-b1: 2′,1′-l][1]oxa[4,7,10,13,17,20,23,26,29]nonaazacyclodotriacontine-7,26-diyl)dicarbamate | – | cyclisation yield: 63% yield
Di-tert-butyl ((7R,8R,11S,19aS,26R,27R,30S,38aS)-11,30-diisopropyl-8,12,15,27,31,34-hexamethyl-6,10,13,16,19,25,29,32,35,38-decaoxodotriacontahydro-2H,6H,10H,25H-dipyrido[2,1-b1: 2′,1′-l][1,17]dioxa[4,7,10,13,20,23,26,29]octaazacyclodotriacontine-7,26-diyl)dicarbamate | – | cyclisation yield: 50% yield
Dibenzyl ((7R,11S,19aS,26R,30S,38aS)-11-((R)-1-(tert-butoxy)ethyl)-30-isopropyl-12,15,31,34-tetramethyl-6,10,13,16,19,25,29,32,35,38-decaoxohexatriacontahydro-2H,6H-dipyrido[1,2-a:1′,2′-q][1,4,7,10,13,17,20,23,26,29]decaazacyclodotriacontine-7,26-diyl)dicarbamate | – | cyclisation yield: 91% yield
N,N′-((7R,8R,11S,19aS,26R,27R,30S,38aS)-11,30-diisopropyl-8,12,15,27,31,34-hexamethyl-6,10,13,16,19,25,29,32,35,38-decaoxodotriacontahydro-2H,6H,10H,25H-dipyrido[2,1-b1: 2′,1′-l][1,17]dioxa[4,7,10,13,20,23,26,29]octaazacyclodotriacontine-7,26-diyl)bis(3-(benzyloxy)quinoline-2-carboxamide) | 100% yield | –
N,N′-((7R,8R,11S,19aS,26R,27R,30S,38aS)-11,30-diisopropyl-8,12,15,27,31,34-hexamethyl-6,10,13,16,19,25,29,32,35,38-decaoxodotriacontahydro-2H,6H,10H,25H-dipyrido[2,1-b1: 2′,1′-l][1,17]dioxa[4,7,10,13,20,23,26,29]octaazacyclodotriacontine-7,26-diyl)bis(3-hydroxyquinoline-2-carboxamide) | 70% yield | –
N,N′-((7R,8R,11S,19aS,26R,30S,38aS)-11,30-di((S)-sec-butyl)-8,12,15,31,34-pentamethyl-6,10,13,16,19,25,29,32,35,38-decaoxotetratriacontahydro-2H,6H,10H-dipyrido[2,1-b1: 2′,1′-l][1]oxa[4,7,10,13,17,20,23,26,29]nonaazacyclodotriacontine-7,26-diyl)bis(3-(benzyloxy)quinoline-2-carboxamide) | 23% yield | –
N,N′-((7R,8R,11S,19aS,26R,30S,38aS)-11,30-di((S)-sec-butyl)-8,12,15,31,34-pentamethyl-6,10,13,16,19,25,29,32,35,38-decaoxotetratriacontahydro-2H,6H,10H-dipyrido[2,1-b1: 2′,1′-l][1]oxa[4,7,10,13,17,20,23,26,29]nonaazacyclodotriacontine-7,26-diyl)bis(3-hydroxyquinoline-2-carboxamide) | 66% yield | –
N,N′-((7R,10aS,22aS,29R,32aS,44aS)-6,10,16,22,28,32,38,44-octaoxotetracontahydro-2H,19H-tetrapyrido[1,2-a1: 1′,2′-d: 1″,2″-k: 1′″,2′″-t][1,17]dioxa[4,7,11,14,20,23,27,30]octaazacyclodotriacontine-7,29-diyl)bis(3-hydroxyquinoline-2-carboxamide) | 62% yield | –
N,N′-((7R,11S,19aS,26R,30S,38aS)-11,30-di((S)-sec-butyl)-12,15,31,34-tetramethyl-6,10,13,16,19,25,29,32,35,38-decaoxohexatriacontahydro-2H,6H-dipyrido[1,2-a:1′,2′-q][1,4,7,10,13,17,20,23,26,29]decaazacyclodotriacontine-7,26-diyl)bis(6-bromo-3-hydroxyquinoline-2-carboxamide) | 54% | –
N,N′-((7R,11S,19aS,26R,30S,38aS)-11,30-dicyclohexyl-12,15,31,34-tetramethyl-6,10,13,16,19,25,29,32,35,38-decaoxohexatriacontahydro-2H,6H-dipyrido[1,2-a:1′,2′-q][1,4,7,10,13,17,20,23,26,29]decaazacyclodotriacontine-7,26-diyl)bis(3-hydroxyquinoline-2-carboxamide) | 15% yield | –
N,N′-((7R,11S,19aS,26R,30S,38aS)-11,30-diisopropyl-9,12,15,28,31,34-hexamethyl-6,10,13,16,19,25,29,32,35,38-decaoxohexatriacontahydro-2H,6H-dipyrido[1,2-a:1′,2′-q][1,4,7,10,13,17,20,23,26,29]decaazacyclodotriacontine-7,26-diyl)bis(3-(benzyloxy)quinoline-2-carboxamide) | 100% yield | –
N,N′-((7R,11S,19aS,26R,30S,38aS)-11,30-diisopropyl-9,12,15,28,31,34-hexamethyl-6,10,13,16,19,25,29,32,35,38-decaoxohexatriacontahydro-2H,6H-dipyrido[1,2-a:1′,2′-q][1,4,7,10,13,17,20,23,26,29]decaazacyclodotriacontine-7,26-diyl)bis(3-hydroxyquinoline-2-carboxamide) | 69% yield | –
N,N′-((7R,11S,19aS,26R,30S,38aS)-11,30-diisopropyl-12,15,31,34-tetramethyl-6,10,13,16,19,25,29,32,35,38-decaoxohexatriacontahydro-2H,6H-dipyrido[1,2-a:1′,2′-q][1,4,7,10,13,17,20,23,26,29]decaazacyclodotriacontine-7,26-diyl)bis(3-(benzyloxy)quinoline-2-carboxamide) | – | step yield (2 steps (Boc removal + chromophore coupling)): 82% yield, 2 steps
N,N′-((7R,11S,19aS,26R,30S,38aS)-11,30-diisopropyl-12,15,31,34-tetramethyl-6,10,13,16,19,25,29,32,35,38-decaoxohexatriacontahydro-2H,6H-dipyrido[1,2-a:1′,2′-q][1,4,7,10,13,17,20,23,26,29]decaazacyclodotriacontine-7,26-diyl)bis(3-hydroxyquinoline-2-carboxamide) | 86% yield | –
N,N′-((7R,11S,19aS,26R,30S,38aS)-11,30-diisopropyl-12,15,31,34-tetramethyl-6,10,13,16,19,25,29,32,35,38-decaoxotetratriacontahydro-2H,6H,10H-dipyrido[2,1-b1: 2′,1′-l][1]oxa[4,7,10,13,17,20,23,26,29]nonaazacyclodotriacontine-7,26-diyl)bis(3-(benzyloxy)quinoline-2-carboxamide) | 47% yield | –
N,N′-((7R,11S,19aS,26R,30S,38aS)-11,30-diisopropyl-12,15,31,34-tetramethyl-6,10,13,16,19,25,29,32,35,38-decaoxotetratriacontahydro-2H,6H,10H-dipyrido[2,1-b1: 2′,1′-l][1]oxa[4,7,10,13,17,20,23,26,29]nonaazacyclodotriacontine-7,26-diyl)bis(3-hydroxyquinoline-2-carboxamide) | 57% yield | –
N,N′-((7R,11S,19aS,26R,30S,38aS)-11,30-diisopropyl-12,31-dimethyl-6,10,13,16,19,25,29,32,35,38-decaoxo-15,34-dipropylhexatriacontahydro-2H,6H-dipyrido[1,2-a:1′,2′-q][1,4,7,10,13,17,20,23,26,29]decaazacyclodotriacontine-7,26-diyl)bis(3-hydroxyquinoline-2-carboxamide) | 36% yield | –
N,N′-((7R,11S,19aS,26R,30S,38aS)-11,30-diisopropyl-12,31-dimethyl-6,10,13,19,25,29,32,38-octaoxodotriacontahydro-2H,6H,16H,25H-dipyrido[1,2-a1: 1′,2′-k][1,17]dioxa[4,7,11,14,20,23,27,30]octaazacyclodotriacontine-7,26-diyl)bis(3-(benzyloxy)quinoline-2-carboxamide) | – | conjugation yield: 60% yield
N,N′-((7R,11S,19aS,26R,30S,38aS)-11,30-diisopropyl-12,31-dimethyl-6,10,13,19,25,29,32,38-octaoxodotriacontahydro-2H,6H,16H,25H-dipyrido[1,2-a1: 1′,2′-k][1,17]dioxa[4,7,11,14,20,23,27,30]octaazacyclodotriacontine-7,26-diyl)bis(3-hydroxyquinoline-2-carboxamide) | 75% yield | –

Source: patent US20240376154A1 (ZYMEWORKS BC INC., priority 2023, published 2024)
